# Some of the results follow.
# What was measured:
# Assay in all cases: glycan array binding signal (z-score within array); higher = stronger binding
# Settings in all cases: glycan notation: IUPAC condensed, linker removed
# [1] = target: Gal(b1-4)GlcNAc(b1-3)Gal(b1-4)GlcNAc(b1-2)[Gal(b1-4)GlcNAc(b1-3)Gal(b1-4)GlcNAc(b1-6)]Man(a1-6)[Gal(b1-4)GlcNAc(b1-3)Gal(b1-4)GlcNAc(b1-2)Man(a1-3)]Man(b1-4)GlcNAc(b1-4)GlcNAc
# Method in brief: (§1)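 Glycan array data were curated from 3228 arrays in the Consortium for Functional Glycomics database and kept only where the protein sequence was available. Glycan names were converted to IUPAC-condensed notation, and columns mapping to the same glycan were averaged. The binding signal is a within-array Z-score, averaged across arrays of the same protein sequence at different concentrations or buffers and across linkers. Negative Z-scores can be read as non-binding.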
# [2] = target: Gal(b1-4)GlcNAc(b1-3)Gal(b1-4)GlcNAc(b1-2)[Gal(b1-4)GlcNAc(b1-3)Gal(b1-4)GlcNAc(b1-6)]Man(a1-6)[Gal(b1-4)GlcNAc(b1-3)Gal(b1-4)GlcNAc(b1-2)Man(a1-3)]Man(b1-4)GlcNAc(b1-4)[Fuc(a1-6)]GlcNAc
# Method in brief: as §1
# [3] = target: Gal(b1-4)GlcNAc(b1-3)Gal(b1-4)GlcNAc(b1-3)Gal(b1-4)GlcNAc
# Method in brief: as §1
# [4] = target: Gal(b1-4)GlcNAc(b1-3)Gal(b1-4)GlcNAc(b1-3)Gal(b1-4)GlcNAc(b1-2)Man(a1-3)[Gal(b1-4)GlcNAc(b1-3)Gal(b1-4)GlcNAc(b1-3)Gal(b1-4)GlcNAc(b1-2)Man(a1-6)]Man(b1-4)GlcNAc(b1-4)GlcNAc
# Method in brief: as §1
# [5] = target: Gal(b1-4)GlcNAc(b1-3)Gal(b1-4)GlcNAc(b1-3)Gal(b1-4)GlcNAc(b1-2)Man(a1-3)[Gal(b1-4)GlcNAc(b1-3)Gal(b1-4)GlcNAc(b1-3)Gal(b1-4)GlcNAc(b1-2)Man(a1-6)]Man(b1-4)GlcNAc(b1-4)[Fuc(a1-6)]GlcNAc
# Method in brief: as §1
# [6] = target: Gal(b1-4)GlcNAc(b1-3)Gal(b1-4)GlcNAc(b1-3)Gal(b1-4)GlcNAc(b1-2)[Gal(b1-4)GlcNAc(b1-3)Gal(b1-4)GlcNAc(b1-3)Gal(b1-4)GlcNAc(b1-6)]Man(a1-6)[Gal(b1-4)GlcNAc(b1-3)Gal(b1-4)GlcNAc(b1-3)Gal(b1-4)GlcNAc(b1-2)Man(a1-3)]Man(b1-4)GlcNAc(b1-4)[Fuc(a1-6)]GlcNAc
# Method in brief: as §1
# [7] = target: Gal(b1-4)GlcNAc(b1-3)Gal(b1-4)GlcNAc(b1-3)Gal(b1-4)GlcNAc(b1-3)Gal(b1-4)GlcNAc(b1-2)Man(a1-3)[Gal(b1-4)GlcNAc(b1-3)Gal(b1-4)GlcNAc(b1-3)Gal(b1-4)GlcNAc(b1-3)Gal(b1-4)GlcNAc(b1-2)Man(a1-6)]Man(b1-4)GlcNAc(b1-4)GlcNAc
# Method in brief: as §1
# [8] = target: Gal(b1-4)GlcNAc(b1-3)Gal(b1-4)GlcNAc(b1-3)Gal(b1-4)GlcNAc(b1-3)Gal(b1-4)GlcNAc(b1-2)Man(a1-3)[Gal(b1-4)GlcNAc(b1-3)Gal(b1-4)GlcNAc(b1-3)Gal(b1-4)GlcNAc(b1-3)Gal(b1-4)GlcNAc(b1-2)Man(a1-6)]Man(b1-4)GlcNAc(b1-4)[Fuc(a1-6)]GlcNAc
# Method in brief: as §1
# [9] = target: Gal(b1-4)GlcNAc(b1-3)Gal(b1-4)GlcNAc(b1-3)Gal(b1-4)GlcNAc(b1-3)Gal(b1-4)GlcNAc(b1-2)[Gal(b1-4)GlcNAc(b1-3)Gal(b1-4)GlcNAc(b1-3)Gal(b1-4)GlcNAc(b1-3)Gal(b1-4)GlcNAc(b1-6)]Man(a1-6)[Gal(b1-4)GlcNAc(b1-3)Gal(b1-4)GlcNAc(b1-3)Gal(b1-4)GlcNAc(b1-3)Gal(b1-4)GlcNAc(b1-2)Man(a1-3)]Man(b1-4)GlcNAc(b1-4)[Fuc(a1-6)]GlcNAc
# Method in brief: as §1
# [10] = target: Gal(b1-4)GlcNAc(b1-3)Gal(b1-4)GlcNAc(b1-3)Gal(b1-4)GlcNAc(b1-3)Gal(b1-4)GlcNAc(b1-3)Gal(b1-4)GlcNAc(b1-2)Man(a1-3)[Gal(b1-4)GlcNAc(b1-3)Gal(b1-4)GlcNAc(b1-3)Gal(b1-4)GlcNAc(b1-3)Gal(b1-4)GlcNAc(b1-3)Gal(b1-4)GlcNAc(b1-2)Man(a1-6)]Man(b1-4)GlcNAc(b1-4)GlcNAc
# Method in brief: as §1
# [11] = target: Gal(b1-4)GlcNAc(b1-3)Gal(b1-4)GlcNAc(b1-3)Gal(b1-4)GlcNAc(b1-3)Gal(b1-4)GlcNAc(b1-3)Gal(b1-4)GlcNAc(b1-2)Man(a1-3)[Gal(b1-4)GlcNAc(b1-3)Gal(b1-4)GlcNAc(b1-3)Gal(b1-4)GlcNAc(b1-3)Gal(b1-4)GlcNAc(b1-3)Gal(b1-4)GlcNAc(b1-2)Man(a1-6)]Man(b1-4)GlcNAc(b1-4)[Fuc(a1-6)]GlcNAc
# Method in brief: as §1
# [12] = target: Gal(b1-4)GlcNAc(b1-3)Gal(b1-4)GlcNAc(b1-3)Gal(b1-4)GlcNAc(b1-3)Gal(b1-4)GlcNAc(b1-3)Gal(b1-4)GlcNAc(b1-2)[Gal(b1-4)GlcNAc(b1-3)Gal(b1-4)GlcNAc(b1-3)Gal(b1-4)GlcNAc(b1-3)Gal(b1-4)GlcNAc(b1-3)Gal(b1-4)GlcNAc(b1-6)]Man(a1-6)[Gal(b1-4)GlcNAc(b1-3)Gal(b1-4)GlcNAc(b1-3)Gal(b1-4)GlcNAc(b1-3)Gal(b1-4)GlcNAc(b1-3)Gal(b1-4)GlcNAc(b1-2)Man(a1-3)]Man(b1-4)GlcNAc(b1-4)[Fuc(a1-6)]GlcNAc
# Method in brief: as §1
# [13] = target: Gal(b1-4)GlcNAc(b1-3)Gal(b1-4)GlcNAc(b1-3)Gal(b1-4)GlcNAc(b1-3)Gal(b1-4)GlcNAc(b1-3)Gal(b1-4)GlcNAc(b1-3)Gal(b1-4)GlcNAc(b1-2)Man(a1-3)[Gal(b1-4)GlcNAc(b1-3)Gal(b1-4)GlcNAc(b1-3)Gal(b1-4)GlcNAc(b1-3)Gal(b1-4)GlcNAc(b1-3)Gal(b1-4)GlcNAc(b1-3)Gal(b1-4)GlcNAc(b1-2)Man(a1-6)]Man(b1-4)GlcNAc(b1-4)GlcNAc
# Method in brief: as §1
# [14] = target: Gal(b1-4)GlcNAc(b1-3)Gal(b1-4)GlcNAc(b1-3)GalNAc
# Method in brief: as §1
# [15] = target: Gal(b1-4)GlcNAc(b1-3)Gal(b1-4)GlcNAc(b1-3)[Gal(b1-4)GlcNAc(b1-3)Gal(b1-4)GlcNAc(b1-6)]GalNAc
# Method in brief: as §1
# [16] = target: Gal(b1-4)GlcNAc(b1-3)Gal(b1-4)GlcNAc(b1-6)[Gal(b1-3)]GalNAc
# Method in brief: as §1
# [17] = target: Gal(b1-4)GlcNAc(b1-3)Gal(b1-4)[Fuc(a1-3)]GlcNAc(b1-3)Gal(b1-4)[Fuc(a1-3)]GlcNAc
# Method in brief: as §1
# [18] = target: Gal(b1-4)GlcNAc(b1-3)GalNAc
# Method in brief: as §1
# [19] = target: Gal(b1-4)GlcNAc(b1-3)[Fuc(a1-3)GlcNAc(b1-6)]Gal(b1-4)Glc
# Method in brief: as §1
# [20] = target: Gal(b1-4)GlcNAc(b1-3)[Gal(b1-4)GlcNAc(b1-6)]Gal(b1-4)GlcNAc
# Method in brief: as §1
# [21] = target: Gal(b1-4)GlcNAc(b1-3)[GlcNAc(b1-6)]Gal(b1-4)GlcNAc
# Method in brief: as §1
# [22] = target: Gal(b1-4)GlcNAc(b1-6)Gal(b1-4)GlcNAc
# Method in brief: as §1
# [23] = target: Gal(b1-4)GlcNAc(b1-6)GalNAc
# Method in brief: as §1
# [24] = target: Gal(b1-4)GlcNAc(b1-6)[Gal(b1-3)]GalNAc
# Method in brief: as §1
# [25] = target: Gal(b1-4)GlcNAc(b1-6)[Gal(b1-4)GlcNAc(b1-3)]GalNAc
# Method in brief: as §1
# Gal(b1-4)GlcNAc6P = target: Gal(b1-4)GlcNAc6P
# Method in brief: as §1
# Gal(b1-6)Gal = target: Gal(b1-6)Gal
# Method in brief: as §1
# Gal3S(b1-3)GalNAc = target: Gal3S(b1-3)GalNAc
# Method in brief: as §1
# Gal3S(b1-3)GlcNAc = target: Gal3S(b1-3)GlcNAc
# Method in brief: as §1
# [26] = target: Gal3S(b1-3)[Fuc(a1-4)]GlcNAc
# Method in brief: as §1
binder,measurement,setting,value
"Thrombomodulin Extracellular (Mus musculus), P15306 (protein) MLGIFFLGVLAPASLGLSALAKLQPTGSQCVEHECFALFQGPATFLDASQACQRLQGHLMTVRSSVAADVISLLLSQSSMDLGPWIGLQLPQGCDDPVHLGPLRGFQWVTGDNHTSYSRWARPNDQTAPLCGPLCVTVSTATEAAPGEPAWEEKPCETETQGFLCEFYFTASCRPLTVNTRDPEAAHISSTYNTPFGVSGADFQTLPVGSSAAVEPLGLELVCRAPPGTSEGHWAWEATGAWNCSVENGGCEYLCNRSTNEPRCLCPRDMDLQADGRSCARPVVQSCNELCEHFCVSNAEVPGSYSCMCETGYQLAADGHRCEDVDDCKQGPNPCPQLCVNTKGGFECFCYDGYELVDGECVELLDPCFGSNCEFQCQPVSPTDYRCICAPGFAPKPDEPHKCEMFCNETSCPADCDPNSPTVCECPEGFILDEGSVCTDIDECSQGECFTSECRNFPGSYECICGPDTALAGQISKDCDPIPVREDTKEEEGSGEPPVSPTPGSPTGPPSARPVHSGVLIGISIASLSLVVALLALLCHLRKKQGAARAELEYKCASSAKEVVLQHVRTDRTLQKF",glycan array binding signal (z-score),[1],1.69
same,glycan array binding signal (z-score),[2],-0.517
same,glycan array binding signal (z-score),[3],0.01
same,glycan array binding signal (z-score),[4],0.95
same,glycan array binding signal (z-score),[5],1.36
same,glycan array binding signal (z-score),[6],1.22
same,glycan array binding signal (z-score),[7],1.97
same,glycan array binding signal (z-score),[8],2.27
same,glycan array binding signal (z-score),[9],0.42
same,glycan array binding signal (z-score),[10],-0.095
same,glycan array binding signal (z-score),[11],2.04
same,glycan array binding signal (z-score),[12],1.39
same,glycan array binding signal (z-score),[13],-0.831
same,glycan array binding signal (z-score),[14],0.001
same,glycan array binding signal (z-score),[15],1.96
same,glycan array binding signal (z-score),[16],-0.025
same,glycan array binding signal (z-score),[17],-0.704
same,glycan array binding signal (z-score),[18],-0.02
same,glycan array binding signal (z-score),[19],-0.32
same,glycan array binding signal (z-score),[20],-0.389
same,glycan array binding signal (z-score),[21],-1.99
same,glycan array binding signal (z-score),[22],-1.93
same,glycan array binding signal (z-score),[23],0.988
same,glycan array binding signal (z-score),[24],-0.832
same,glycan array binding signal (z-score),[25],0.229
same,glycan array binding signal (z-score),Gal(b1-4)GlcNAc6P,0.737
same,glycan array binding signal (z-score),Gal(b1-6)Gal,-0.213
same,glycan array binding signal (z-score),Gal3S(b1-3)GalNAc,1.79
same,glycan array binding signal (z-score),Gal3S(b1-3)GlcNAc,-1.52
same,glycan array binding signal (z-score),[26],-0.845

# 2 records picked at random from the list so far:
binder,measurement,setting,value
"Thrombomodulin Extracellular (Mus musculus), P15306 (protein) MLGIFFLGVLAPASLGLSALAKLQPTGSQCVEHECFALFQGPATFLDASQACQRLQGHLMTVRSSVAADVISLLLSQSSMDLGPWIGLQLPQGCDDPVHLGPLRGFQWVTGDNHTSYSRWARPNDQTAPLCGPLCVTVSTATEAAPGEPAWEEKPCETETQGFLCEFYFTASCRPLTVNTRDPEAAHISSTYNTPFGVSGADFQTLPVGSSAAVEPLGLELVCRAPPGTSEGHWAWEATGAWNCSVENGGCEYLCNRSTNEPRCLCPRDMDLQADGRSCARPVVQSCNELCEHFCVSNAEVPGSYSCMCETGYQLAADGHRCEDVDDCKQGPNPCPQLCVNTKGGFECFCYDGYELVDGECVELLDPCFGSNCEFQCQPVSPTDYRCICAPGFAPKPDEPHKCEMFCNETSCPADCDPNSPTVCECPEGFILDEGSVCTDIDECSQGECFTSECRNFPGSYECICGPDTALAGQISKDCDPIPVREDTKEEEGSGEPPVSPTPGSPTGPPSARPVHSGVLIGISIASLSLVVALLALLCHLRKKQGAARAELEYKCASSAKEVVLQHVRTDRTLQKF",glycan array binding signal (z-score),[13],-0.831
same,glycan array binding signal (z-score),Gal(b1-4)GlcNAc6P,0.737

# — the supplement of paper PMC8728848
